The nature of the data set: general procedure: Fmoc solid-phase peptide synthesis; Fmoc-Trp-OCH₂-phenyloxybenzyl resin. The settings on record: whole synthesis, scale 0.25 mmol.

HELM strings list residues between dots; [ac] is acetyl, [am] amide, other brackets name non-standard units.

In turn, “PEPTIDE1{[ac].D.K.E.A.V.Y.F.A.H.L.D.I.I.W}$$$$V2.0” had an isolated mass of 159 mg.

Source of the values: EP0548441A1 (Japat Ltd, priority 1991, dated 1993).
